A short description of this data set: general procedure: solution-phase peptide synthesis. To be noted: coupling step.

Data on one substance can be found in patent US10308606B2 (On Target Laboratories, LLC, priority 2016, dated 2019).

“DUPA-(O^tBu)3-PEG2-Phe-Tyr-(O^tBu)-O^tBu” yielded a step yield of 75%.
